PubChem BioAssay AID504793 | Drosophila RNAi Screening Center, 2011
Aim: 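Knock-downs allowing continued mitosis even though DNA is damaged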 (primary screen). System: Drosophila S2R+ cells. Reagent: long dsRNA against Drosophila genes, about 0.25 µg dsRNA per well. Duration: 4 days of dsRNA, then 4 hours of drug before read-out. Challenge: doxorubicin 0.5 µM for 4 hours to cause double-strand breaks, in cells also given a low, harmless dose of dsRNA against nbs to sensitise the assay. Read-out: 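Mitotic index as the number of phospho-histone H3-positive cells in each well following doxorubicin, given as raw counts without normalisation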. Direction: mitotic cells: higher = more cells in mitosis, weaker G2 arrest. Rule for the call: 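a call needs confirmation in secondary tests, with other dsRNAs and a check of mitotic timing without damage, not just a high primary count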. Meaning of the calls: active = confirmed in follow-up tests; inactive = not confirmed.
In all, the deposit lists about 23,000 reagents; below is an unselected part of those with a known target gene and a result. In the full data, 62 (0.27%) got an active call. 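Calls come from follow-up tests whose scores are not deposited, so confirmed genes may have low counts here; counts are not normalised per plate.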 The raw values are shown without normalisation. Reagents against one gene are numbered here. Names joined by + are all predicted targets of the reagent.

gene knocked down | dsRNA no. | mitotic cells, replicate 1 | activity call
Ctu2 (GeneID 35234) | 1 | 2 | inactive
Ctu2 (GeneID 35234) | 2 | 5 | inactive
CG42269 (GeneID 38689) | 1 | 9 | inactive
CG42269 (GeneID 38689) | 2 | 5 | inactive
CG42269 (GeneID 38689) | 3 | 8 | inactive
CG42269 (GeneID 38689) | 4 | 7 | inactive
ERp44 (GeneID 32588) | 1 | 5 | inactive
CG42748 (GeneID 35442) | 1 | 8 | inactive
CG42748 (GeneID 35442) | 2 | 6 | inactive
CG42748 (GeneID 35442) | 3 | 5 | inactive
CG42748 (GeneID 35442) | 4 | 6 | inactive
Cyp4ae1 (GeneID 31193) | 1 | 12 | inactive
Cyp4ae1 (GeneID 31193) | 2 | 8 | inactive
CG11710 (GeneID 33044) | 1 | 4 | inactive
CG11710 (GeneID 33044) | 2 | 9 | inactive
CG32110 (GeneID 317858) | 1 | 9 | inactive
Tsp26A (GeneID 33838) | 1 | 5 | inactive
CG10283 (GeneID 35102) | 1 | 2 | inactive
CG10283 (GeneID 35102) | 2 | 9 | inactive
BomT3 (GeneID 42598) | 1 | 8 | inactive
BomT3 (GeneID 42598) | 2 | 9 | inactive
CG3040 (GeneID 31642) | 1 | 9 | inactive
CG15256 (GeneID 34911) | 1 | 6 | inactive
side-VIII (GeneID 37310) | 1 | 20 | inactive
side-VIII (GeneID 37310) | 2 | 5 | inactive
side-VIII (GeneID 37310) | 3 | 13 | inactive
side-VIII (GeneID 37310) | 4 | 11 | inactive
side-VIII (GeneID 37310) | 5 | 9 | inactive
CG12259 (GeneID 43347) | 1 | 4 | inactive
CG12259 (GeneID 43347) | 2 | 5 | inactive
CG5554 (GeneID 37775) | 1 | 8 | inactive
CG5554 (GeneID 37775) | 2 | 3 | inactive
Nnf1b (GeneID 318874) | 1 | 9 | inactive
Nnf1b (GeneID 318874) | 2 | 6 | inactive
Idh3g (GeneID 43102) | 1 | 2 | inactive
Idh3g (GeneID 43102) | 2 | 4 | inactive
CG12911 (GeneID 36081) | 1 | 8 | inactive
CG12911 (GeneID 36081) | 2 | 2 | inactive
CG18636 (GeneID 2768923) | 1 | 5 | inactive
CG18636 (GeneID 2768923) | 2 | 4 | inactive
CG1523 (GeneID 43400) | 1 | 2 | inactive
CG1523 (GeneID 43400) | 2 | 2 | inactive
Aos1 (GeneID 41532) | 1 | 5 | inactive
Aos1 (GeneID 41532) | 2 | 4 | inactive
Oscillin (GeneID 33783) | 1 | 10 | inactive
Oscillin (GeneID 33783) | 2 | 3 | inactive
kar (GeneID 45883) | 1 | 6 | inactive
Tbcc (GeneID 319048) | 1 | 10 | inactive
Tbcc (GeneID 319048) | 2 | 7 | inactive
AANATL7 (GeneID 31236) | 1 | 9 | inactive
alphaTub84B (GeneID 40848) | 1 | 107 | inactive
alphaTub84B (GeneID 40848) | 2 | 58 | inactive
Cpr30F (GeneID 318997) | 1 | 8 | inactive
Cpr30F (GeneID 318997) | 2 | 10 | inactive
CG12112 (GeneID 31794) | 1 | 5 | inactive
Ir25a (GeneID 33683) | 1 | 8 | inactive
Ir25a (GeneID 33683) | 2 | 5 | inactive
CG12560 (GeneID 34092) | 1 | – | inactive
Est-6 (GeneID 39392) | 1 | 8 | inactive

Next part, starting with the last 15 of the part before.
gene knocked down | dsRNA no. | mitotic cells, replicate 1 | activity call
Oscillin (GeneID 33783) | 1 | 10 | inactive
Oscillin (GeneID 33783) | 2 | 3 | inactive
kar (GeneID 45883) | 1 | 6 | inactive
Tbcc (GeneID 319048) | 1 | 10 | inactive
Tbcc (GeneID 319048) | 2 | 7 | inactive
AANATL7 (GeneID 31236) | 1 | 9 | inactive
alphaTub84B (GeneID 40848) | 1 | 107 | inactive
alphaTub84B (GeneID 40848) | 2 | 58 | inactive
Cpr30F (GeneID 318997) | 1 | 8 | inactive
Cpr30F (GeneID 318997) | 2 | 10 | inactive
CG12112 (GeneID 31794) | 1 | 5 | inactive
Ir25a (GeneID 33683) | 1 | 8 | inactive
Ir25a (GeneID 33683) | 2 | 5 | inactive
CG12560 (GeneID 34092) | 1 | – | inactive
Est-6 (GeneID 39392) | 1 | 8 | inactive
CG31832 (GeneID 318970) | 1 | 9 | inactive
CG31832 (GeneID 318970) | 2 | 3 | inactive
Gr93b (GeneID 117472) | 1 | 8 | inactive
CG2680 (GeneID 31257) | 1 | 11 | inactive
CG43693 (GeneID 39231) | 1 | 2 | inactive
CG43693 (GeneID 39231) | 2 | 4 | inactive
CG3902 (GeneID 40059) | 1 | 4 | inactive
CG3902 (GeneID 40059) | 2 | 5 | inactive
escl (GeneID 34611) | 1 | 4 | inactive
escl (GeneID 34611) | 2 | 5 | inactive
odd (GeneID 33583) | 1 | 9 | inactive
Cluap1 (GeneID 33142) | 1 | 11 | inactive
Cluap1 (GeneID 33142) | 2 | 19 | inactive
CG15696 (GeneID 42469) | 1 | 12 | inactive
CG15696 (GeneID 42469) | 2 | 6 | inactive
BCAS2 (GeneID 43348) | 1 | 8 | inactive
BCAS2 (GeneID 43348) | 2 | 5 | inactive
PIP4K (GeneID 3885565) | 1 | 10 | inactive
CG14419 (GeneID 31276) | 1 | 14 | inactive
CG14419 (GeneID 31276) | 2 | 5 | inactive
car (GeneID 32947) | 1 | 7 | inactive
car (GeneID 32947) | 2 | 5 | inactive
otp (GeneID 37364) | 1 | 7 | inactive
otp (GeneID 37364) | 2 | 8 | inactive
otp (GeneID 37364) | 3 | 6 | inactive
cert (GeneID 38928) | 1 | 1 | inactive
CG4497 (GeneID 34001) | 1 | 7 | inactive
dpr7 (GeneID 2768865) | 1 | 4 | inactive
dpr7 (GeneID 2768865) | 2 | 4 | inactive
CG31122 (GeneID 42221) | 1 | 5 | inactive
CG31122 (GeneID 42221) | 2 | 11 | inactive
HLH54F (GeneID 37027) | 1 | 5 | inactive
Brd8 (GeneID 43460) | 1 | 7 | inactive
Brd8 (GeneID 43460) | 2 | 4 | inactive
kni (GeneID 40287) | 1 | 21 | inactive
kni (GeneID 40287) | 2 | 17 | inactive
CG42534 (GeneID 43298) | 1 | 13 | inactive
CG42534 (GeneID 43298) | 2 | 7 | inactive
CG42534 (GeneID 43298) | 3 | 12 | inactive
CG42534 (GeneID 43298) | 4 | 7 | inactive
mIF2 (GeneID 43382) | 1 | 7 | inactive
mIF2 (GeneID 43382) | 2 | 6 | inactive
fl(2)d (GeneID 36527) | 1 | 4 | inactive
wun2 (GeneID 53558) | 1 | 4 | inactive
Sdhaf3 (GeneID 42004) | 1 | 8 | inactive
LManI (GeneID 34436) | 1 | 4 | inactive
LManI (GeneID 34436) | 2 | 11 | inactive
p115 (GeneID 31698) | 1 | 11 | inactive
Naa15-16 (GeneID 32934) | 1 | 12 | inactive
Naa15-16 (GeneID 32934) | 2 | 7 | inactive
CG11889 + CG11891 | 1 | 11 | inactive
CG11889 + CG11891 | 2 | 9 | inactive
CG11889 + CG11891 | 3 | 7 | inactive
CG31862 (GeneID 318989) | 1 | 11 | inactive
CG7841 (GeneID 39672) | 1 | 11 | inactive
Eph (GeneID 43803) | 1 | 12 | inactive
CG18480 (GeneID 34920) | 1 | 2 | inactive
CG18480 (GeneID 34920) | 2 | 7 | inactive
CG6398 (GeneID 32761) | 1 | 4 | inactive
CG32379 (GeneID 326211) | 1 | 6 | inactive
CG17104 (GeneID 34465) | 1 | 3 | inactive
CG17104 (GeneID 34465) | 2 | 4 | inactive
Eig71Ea (GeneID 39700) | 1 | 2 | inactive
Cyp28c1 (GeneID 32138) | 1 | 3 | inactive
Cec-Psi1 (GeneID 3772648) | 1 | 9 | inactive
CG32023 (GeneID 317827) | 1 | 12 | inactive
CG7824 (GeneID 43530) | 1 | 5 | inactive
dpn (GeneID 35800) | 1 | 7 | inactive
dpn (GeneID 35800) | 2 | 6 | inactive
Dred (GeneID 40124) | 1 | 3 | inactive
Dred (GeneID 40124) | 2 | 9 | inactive
lncRNA:CR33942 (GeneID 3771992) | 1 | 8 | inactive
lncRNA:CR33942 (GeneID 3771992) | 2 | 9 | inactive
l(3)87Df (GeneID 49762) | 1 | 4 | inactive
Tcs5 (GeneID 38600) | 1 | 6 | inactive
CG1889 + CG43386 | 1 | 9 | inactive
CG17107 (GeneID 34467) | 1 | 8 | inactive
CG17107 (GeneID 34467) | 2 | 10 | inactive
CG17107 (GeneID 34467) | 3 | 5 | inactive
Ir52b (GeneID 246631) | 1 | 2 | inactive
CG30291 (GeneID 246534) | 1 | 4 | inactive
